Reference: paper PMC5457407
These are yes or no findings as the source states them, for the method shown. Binding seen in cells or lysates may run through a third protein. Some binding calls cover weakened binding; strength is not graded here.

Protein sequences, listed by entry. Tags and fused reporters are not part of them. Residues count along the entry.
UniProt Q99KR7, residues 30-206: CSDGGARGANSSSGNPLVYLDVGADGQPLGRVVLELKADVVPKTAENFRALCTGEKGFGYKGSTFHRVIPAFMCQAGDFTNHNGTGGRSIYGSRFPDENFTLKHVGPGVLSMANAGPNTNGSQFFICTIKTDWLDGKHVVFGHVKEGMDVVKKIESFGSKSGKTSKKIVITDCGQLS

Biological target: cyclophilin D (mouse (endogenous in myocardial cells isolated from C57 mice)) (UniProt Q99KR7)
Assay: co-IP; lysates of myocardial cells isolated from sham, TAC and AST-treated TAC mice; incubated with anti-PPARα or anti-CypD antibodies overnight at 4 °C, harvested with protein A/G-agarose beads, immunoblotted for CypD and PPARα

B1: peroxisome proliferator-activated receptor alpha (protein, UniProt P23204 1-468)
chain: MVDTESPICPLSPLEADDLESPLSEEFLQEMGNIQEISQSIGEESSGSFGFADYQYLGSCPGSEGSVITDTLSPASSPSSVSCPVIPASTDESPGSALNIECRICGDKASGYHYGVHACEGCKGFFRRTIRLKLVYDKCDRSCKIQKKNRNKCQYCRFHKCLSVGMSHNAIRFGRMPRSEKAKLKAEILTCEHDLKDSETADLKSLGKRIHEAYLKNFNMNKVKARVILAGKTSNNPPFVIHDMETLCMAEKTLVAKMVANGVEDKEAEVRFFHCCQCMSVETVTELTEFAKAIPGFANLDLNDQVTLLKYGVYEAIFTMLSSLMNKDGMLIAYGNGFITREFLKNLRKPFCDIMEPKFDFAMKFNALELDDSDISLFVAAIICCGDRPGLLNIGYIEKLQEGIVHVLKLHLQSNHPDDTFLFPKLLQKMVDLRQLVTEHAQLVQVIKKTESDAALHPLLQEIYRDMY
binding: binds
